# Assay results from patent US4178442A, “Novel cinnamoyles piperazines and homopiperazines, the method of preparing them and their application in therapeutics” (Delalande S. A., priority 1977, dated 1979).
# Assay: in vivo
# Conditions: iv, 180 mg/kg i.v., read-out: Toxicity (Mortality)
# Text: *LD50 or percentage of mortality which is given between brackets
compound,measurement,value
"CCCCc1oc2ccccc2c1C(=O)c1cc(I)c(OCCN(CC)CC)c(I)c1 [AMIODARONE, reference compound]",mortality,50%
